Data reported in PubChem BioAssay AID743255 (National Center for Advancing Translational Sciences (NCATS), 2014).
Screen size: about 390,000 compounds; about 910 (0.23%) were called active. Inconclusive results, whose numbers are uncertain, are shown with a selection of clear calls. Calls come from the whole dose curve; as a rule, active = well fitted inhibition curve with a large enough effect; inconclusive = small, poorly fitted or top-dose-only effect; inactive = no such curve, though single readings can be large or run the other way. Potencies beside an inconclusive call are fits to weak or partial responses and may not hold up.

Protein sequences, listed by entry. Tags and fused reporters are not part of them. Lines headed by an entry give the natural chain unless they say otherwise; changes in a name come on top.
UniProt O94782: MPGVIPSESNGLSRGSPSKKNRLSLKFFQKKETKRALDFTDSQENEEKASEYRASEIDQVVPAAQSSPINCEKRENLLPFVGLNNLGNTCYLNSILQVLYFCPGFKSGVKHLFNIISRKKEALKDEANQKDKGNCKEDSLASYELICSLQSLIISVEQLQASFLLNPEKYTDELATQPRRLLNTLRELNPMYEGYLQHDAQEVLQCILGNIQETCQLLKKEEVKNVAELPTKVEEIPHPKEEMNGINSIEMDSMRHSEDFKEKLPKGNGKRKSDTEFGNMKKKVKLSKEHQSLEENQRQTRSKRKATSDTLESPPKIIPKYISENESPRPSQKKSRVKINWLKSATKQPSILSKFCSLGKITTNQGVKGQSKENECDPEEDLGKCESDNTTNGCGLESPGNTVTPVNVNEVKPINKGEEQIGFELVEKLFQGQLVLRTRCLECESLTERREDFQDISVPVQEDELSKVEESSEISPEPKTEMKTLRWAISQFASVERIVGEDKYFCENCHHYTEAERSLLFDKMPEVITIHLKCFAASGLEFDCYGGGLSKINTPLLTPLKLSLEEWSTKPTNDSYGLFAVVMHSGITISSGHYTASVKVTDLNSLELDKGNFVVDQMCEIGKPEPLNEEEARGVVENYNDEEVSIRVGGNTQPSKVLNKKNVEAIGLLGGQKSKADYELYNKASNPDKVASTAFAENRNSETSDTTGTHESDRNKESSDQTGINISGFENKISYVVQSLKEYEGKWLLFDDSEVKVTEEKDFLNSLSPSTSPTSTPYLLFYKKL

molecular target: Ubiquitin carboxyl-terminal hydrolase 1 (Homo sapiens) (UniProt O94782); assay: Inhibitors of USP1/UAF1: Primary Screen; conditions: recombinant USP1/UAF1, Ub-Rhodamine cleavage fluorescence; activity change, negative = inhibition: at 57.1 µM (top of the series); note: nearly all actives have a fitted effect of over 60% in size
In short: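 Step one: compound is pinned into 1nM USP1/UAF1 in HEPES pH 7.8 buffer with TCEP. Step two: 15 min room-temperature incubation. Step three: Ub-Rho (150nM final) starts cleavage, tracked by fluorescence over six one-minute reads.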
% is set by controls: 0 for no effect and ±100 for the full control effect; potency is the fitted concentration of half-maximal effect.

Potency, inconclusive:
CN(C)CCNC(=O)C(=O)NCC1OCCN1S(=O)(=O)c1ccc(F)cc1 (stereo not given) 0.251 µM [inhibitor, full curve, poor fit]
CCOc1ccc(C(=O)Nc2ccc(-c3nc4ccccc4[nH]3)cc2)cc1[N+](=O)[O-] 44.7 µM [inhibitor, partial curve]
COc1ccc(CN2CCN(S(=O)(=O)c3ccccc3)CC2)c(OC)c1 0.251 µM [inhibitor, full curve, poor fit]
COCCNC(=S)N/N=C/c1c2ccccc2cc2ccccc12 39.8 µM [inhibitor, partial curve, poor fit]
Cc1ccc(C(=O)NC2(O)C(=O)c3ccccc3C2=O)cc1C 31.6 µM [inhibitor, partial curve, poor fit]
Oc1c(Br)cc(C=Nc2ccc3nc(-c4ccccc4)[nH]c3c2)c(O)c1Br 44.7 µM [inhibitor, partial curve]
COCCCNC(=S)N1CCN(c2nc(-c3ccc(F)cc3)cs2)CC1 28.2 µM [inhibitor, partial curve]
CC[C@H](C)C(=O)N[C@H]1CCCN1C(=O)/C=C/c1ccccc1 112 µM [inhibitor, partial curve, poor fit]
Cc1cccn2c(=O)c(/C=C(\C#N)c3nc4ccccc4n3C)c(Oc3ccc(Cl)cc3)nc12 7.94 µM [inhibitor, partial curve]
O=C1CC2(CCCCC2)CC(=O)N1CCc1ccccc1 56.2 µM [inhibitor, partial curve, poor fit]
CCCCN(CC)c1nc(N)c(C#N)c(CC#N)c1C#N 35.5 µM [inhibitor, partial curve, poor fit]
Cc1ncc([N+](=O)[O-])n1CC(=O)Nc1ccccc1Cl 0.1 µM [inhibitor, full curve, poor fit]
COc1cccc(NC(=O)C2CCCN2S(=O)(=O)c2ccc3c(c2)n(C)c(=O)c(=O)n3C)c1 (stereo not given) 8.91 µM [inhibitor, partial curve, poor fit]
NC(=O)c1ccc2c(=O)n3c(-c4cc(Cl)c(N)c(Cl)c4)csc3nc2c1 44.7 µM [inhibitor, partial curve, poor fit]
CC1=C(Nc2ccc(C(=O)O)cc2)C(=O)c2ccccc2C1=O 44.7 µM [inhibitor, partial curve]
CCN1C(=O)N(C)[C@@H](c2ccccc2)C(C(C)=O)=C1C 56.2 µM [inhibitor, partial curve, poor fit]
O=C(N/N=C/c1c(O)ccc2ccccc12)c1cccc(C(F)(F)F)c1 31.6 µM [inhibitor, partial curve, poor fit]
Cc1noc(C)c1NC(=O)N(C)C[C@H]1Oc2c(NC(=O)Cc3ccccc3)cccc2C(=O)N([C@H](C)CO)C[C@@H]1C 35.5 µM [inhibitor, partial curve, poor fit]
CCc1cccc(-n2c(=O)c3cccnc3n2CC(=O)Nc2ccccc2C(=O)OC)c1 7.08 µM [inhibitor, single point]
CC(Oc1ccc(Cl)cc1Cl)c1nc(-c2ccc(NC(=O)c3ccco3)cc2)no1 (stereo not given) 8.91 µM [inhibitor, full curve, poor fit]
CCOc1cccc(/C=C/c2ccc3cccc(O)c3n2)c1OC 31.6 µM [inhibitor, partial curve]
CCCCN1CNC(=S)N(CCc2ccccc2)C1 28.2 µM [inhibitor, partial curve]
Fc1ccc(-c2cc(-c3ccccc3)nc(-n3cccn3)n2)cc1 44.7 µM [inhibitor, partial curve]
Cc1cccc(C)c1NC(=S)Nc1ccc(F)cc1 50.1 µM [inhibitor, partial curve, poor fit]
O=S(=O)(NCCc1nnc2ccc(SCc3c(F)cccc3Cl)nn12)c1ccccc1 141 µM [inhibitor, partial curve, poor fit]
CCN(CC)C(=O)C1=CC(c2ccc3c(c2)OCO3)=NS(=O)(=O)N1C 31.6 µM [inhibitor, partial curve, poor fit]
O=C(CCCCn1c(=O)c2ccccc2n(Cc2ccccc2F)c1=O)NCc1ccccc1Cl 35.5 µM [inhibitor, partial curve]
O=C(Cc1cccc(NC(=O)C2CCN(C(=O)C3CCCC3)CC2)c1)Nc1cccc(C(=O)N2CCCC2)c1 0.282 µM [inhibitor, full curve]
O=C(Nc1cc(S(=O)(=O)N2CCOCC2)ccc1N1CCCC1)c1ccc2c(c1)S(=O)(=O)c1ccccc1C2=O 15.8 µM [inhibitor, partial curve]
COc1ccc(C(=O)C2=NN(C(C)=O)CC2c2ccco2)cc1 (stereo not given) 8.91 µM [inhibitor, single point]
O=C(CN1CCN(CC(=O)Nc2ccccc2F)CC1)Nc1ccc(Cl)c(C(F)(F)F)c1 4.47 µM [inhibitor, partial curve]
COc1ccc(NC(=O)C2=C(C)Nc3ncnn3C2c2ccccn2)cc1 (stereo not given) 7.94 µM [inhibitor, single point]
Cc1ccc2c(c1)c1ncnc(N3CCc4ccccc4C3)c1n2C 28.2 µM [inhibitor, partial curve]
COc1ccc(N2C(=O)CS(=O)(=O)C23C(=O)N(Cc2c(F)cccc2Cl)c2ccccc23)cc1 (stereo not given) 0.631 µM [inhibitor, full curve, poor fit]
CC(=O)Nc1cccc(NS(=O)(=O)c2ccc3c(c2)CCC(=O)N3)c1 8.91 µM [inhibitor, full curve, poor fit]
CC(=O)n1cc([C@H]2C=C(C(=O)N3CCN(Cc4ccccc4)CC3)O[C@@H](OCc3ccc(CO)cc3)C2)c2ccccc21 8.91 µM [inhibitor, full curve, poor fit]
O=C(COCc1cc(-c2cccs2)on1)Nc1cccc(O)c1 0.282 µM [inhibitor, full curve, poor fit]
O=c1[nH]c(=S)ccn1C1OC(CO)C(O)C1O (stereo not given) 35.5 µM [inhibitor, partial curve, poor fit]
COC(=O)CC1=C(C)C(=O)CC2C(C)(C)CCCC12C (stereo not given) 31.6 µM [inhibitor, single point]
O/N=C/c1nc2cc(Cl)ccc2o1 3.98 µM [inhibitor, full curve, poor fit]
COC(=O)c1c(C)sc(-c2c(-c3ccc4c(c3)OCCO4)[nH]c3c2c(=O)[nH]c(=O)n3C)c1O 25.1 µM [inhibitor, partial curve]
CCC(C)C1C(C#N)=C(N)Oc2n[nH]c(-c3ccccc3)c21 (stereo not given) 3.16 µM [inhibitor, full curve]
CC(C)(C)NC(=O)CCSc1nc(-c2ccc3c(c2)OCO3)cc(C(F)(F)F)n1 44.7 µM [inhibitor, partial curve, poor fit]
O=c1[nH]c2cc3ccccc3cc2nc1C(F)(F)F 5.01 µM [inhibitor, single point]
O=C(O)c1ccc(N/N=C/c2ccc(-c3ccc(Cl)cc3Cl)o2)cc1 35.5 µM [inhibitor, partial curve]
O=C1C2C(c3ccccc3)C=CC(c3ccccc3)C2C(=O)N1CCO (stereo not given) 0.282 µM [inhibitor, full curve, poor fit]

Nothing new here: 14 of the compounds above.
Potency, inconclusive:
O=C(CN1CCN(CC(=O)Nc2ccccc2F)CC1)Nc1ccc(Cl)c(C(F)(F)F)c1 4.47 µM [inhibitor, partial curve]
COc1ccc(NC(=O)C2=C(C)Nc3ncnn3C2c2ccccn2)cc1 (stereo not given) 7.94 µM [inhibitor, single point]
Cc1ccc2c(c1)c1ncnc(N3CCc4ccccc4C3)c1n2C 28.2 µM [inhibitor, partial curve]
COc1ccc(N2C(=O)CS(=O)(=O)C23C(=O)N(Cc2c(F)cccc2Cl)c2ccccc23)cc1 (stereo not given) 0.631 µM [inhibitor, full curve, poor fit]
CC(=O)Nc1cccc(NS(=O)(=O)c2ccc3c(c2)CCC(=O)N3)c1 8.91 µM [inhibitor, full curve, poor fit]
CC(=O)n1cc([C@H]2C=C(C(=O)N3CCN(Cc4ccccc4)CC3)O[C@@H](OCc3ccc(CO)cc3)C2)c2ccccc21 8.91 µM [inhibitor, full curve, poor fit]
O=C(COCc1cc(-c2cccs2)on1)Nc1cccc(O)c1 0.282 µM [inhibitor, full curve, poor fit]
O=c1[nH]c(=S)ccn1C1OC(CO)C(O)C1O (stereo not given) 35.5 µM [inhibitor, partial curve, poor fit]
COC(=O)CC1=C(C)C(=O)CC2C(C)(C)CCCC12C (stereo not given) 31.6 µM [inhibitor, single point]
O/N=C/c1nc2cc(Cl)ccc2o1 3.98 µM [inhibitor, full curve, poor fit]
COC(=O)c1c(C)sc(-c2c(-c3ccc4c(c3)OCCO4)[nH]c3c2c(=O)[nH]c(=O)n3C)c1O 25.1 µM [inhibitor, partial curve]
CCC(C)C1C(C#N)=C(N)Oc2n[nH]c(-c3ccccc3)c21 (stereo not given) 3.16 µM [inhibitor, full curve]
CC(C)(C)NC(=O)CCSc1nc(-c2ccc3c(c2)OCO3)cc(C(F)(F)F)n1 44.7 µM [inhibitor, partial curve, poor fit]
O=c1[nH]c2cc3ccccc3cc2nc1C(F)(F)F 5.01 µM [inhibitor, single point]

Following part.

Potency, inactive:
CSc1cccc(NC(=O)/C=C/c2ccco2)c1
CCCc1cc(=O)[nH]c2nnc(SCCC(C)C)n12
Cc1ccccc1OCC(=O)Nc1ccc(Cc2ccncc2)cc1
Cc1c(C(=O)Nc2cccc(C(F)(F)F)c2)oc2ccc(S(=O)(=O)N(C)C3CCCCC3)cc12
Cn1c(COc2nnc(-c3ccc(Cl)cc3)c3ccccc23)nc2ccccc21
CC(=NCc1cccnc1)C1=C(O)c2ccccc2C1=O
Cn1c2nc(=O)[nH]c(=O)c-2cc2ccccc21
Cc1ccc(C)c(C(C)NC(=S)NCc2ccc(F)cc2)c1 (stereo not given)
Fc1cccc(/C=N/Nc2ccccn2)c1
CC(C)CCNC(=O)c1cc(Sc2ccc(F)cc2F)nc2ccccc12
CS(=O)(=O)c1ccc(C(=O)OCc2nnc(-c3ccccc3)o2)cc1[N+](=O)[O-]
CCOC(=O)CSc1ccc2nnc(-c3cccnc3)n2n1
CC1(C)CCC(=O)c2ccccc21
CCNc1nc(NC(C)(C)C)nc(N2CCCCC2)n1
Cn1c(SCC(=O)NCc2cccs2)nnc1-c1ccc(O)cc1
CCOC(=O)c1ccc(N2C(=O)C3CCCN3C2=S)cc1 (stereo not given)
Cc1cccc(OC(=O)Nc2ccc(C(=O)O)c(O)c2)c1
COCC(=O)OCC(=O)c1cc(C)n(-c2ccc(Br)cc2)c1C

Activity change, negative = inhibition, inconclusive:
CCOc1ncccc1C(=O)OCC(=O)NCc1ccccc1 2.37% [inhibitor]
